{
  "source": "PubChem BioAssay AID624297",
  "about": "(National Center for Advancing Translational Sciences (NCATS), 2012)",
  "note": "In all, about 340,000 compounds went through this assay and about 6,200 (1.8%) were called active. The shares of active, inactive and inconclusive entries below differ from those in the screen. Calls follow the shape of the dose curve; as a rule, active = well fitted activation curve with a large enough effect; inconclusive = small, poorly fitted or top-dose-only effect; inactive = no such curve, though single readings can be large or run the other way. Potencies of inconclusive entries are doubtful fits and often do not repeat. Potency is read from the fitted curve at half-maximal effect.",
  "data": [
    {"test": "A quantitative high throughput screen for small molecules that induce DNA re-replication in SW480 colon adenocarcinoma cells; also: nearly all actives have a fitted effect of over 55% in size; as to re-replication activation: % of control where 0% means no effect.", "conditions": "Hoechst DNA content imaging, 48 h; re-replication activation: at 46.1 µM (top of the series) unless noted", "procedure,_shortened": "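Per well, 250 cells were exposed to pinned compound for 48 hr. Nuclear DNA was visualised with Hoechst (40 min, 37 C) and total object intensity recorded by fluorescence scanning.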", "values": [
      {"smiles": "Cc1ccc(CC(=O)Nc2ccccc2-c2ccccc2)cc1C", "re-replication activation": "inactive: 3.13%"},
      {"smiles": "CC1CN(C(=O)c2cc(-c3ccncc3)nc3ccccc23)CC(C)O1", "note": "(stereo unspecified)", "re-replication activation": "inconclusive: 131% [activator]"},
      {"smiles": "O=C(Cn1ncc2c([nH]c3ccccc32)c1=O)Nc1ccc(F)cc1F", "Potency": "inconclusive: 29.1 µM [activator, single point]"},
      {"smiles": "CC(NC(=O)COC(=O)c1cc(NS(=O)(=O)c2ccc(Cl)c([N+](=O)[O-])c2)ccc1O)C1CC2CCC1C2", "note": "(stereo unspecified)", "Potency": "active: 9.2 µM"},
      {"smiles": "CC(C)CC(=O)N1CCN(Cc2ccccc2Br)CC1", "re-replication activation": "inconclusive: 32% [activator]"},
      {"smiles": "Cc1cc(S(=O)(=O)c2cc3ccc(O)c(C)c3oc2=O)ccc1F", "Potency": "inconclusive: 16.4 µM [activator, partial curve, poor fit]"},
      {"smiles": "CCOC(=O)c1cccc(NC(=O)CC2Oc3ccccc3NC2=O)c1", "note": "(stereo unspecified)", "Potency": "inconclusive: 4.61 µM [activator, full curve, poor fit]"},
      {"smiles": "CN(CCOc1ccccc1)C(=O)c1ccc(F)c(S(=O)(=O)N2CCOCC2)c1", "Potency": "inconclusive: 23.1 µM [activator, single point]"},
      {"smiles": "CCN(CC)c1ccc2cc(C(N)=O)c(=N)oc2c1", "Potency": "inconclusive: 20.6 µM [activator, single point]"},
      {"smiles": "O=C(C#Cc1ccccc1)c1ccco1", "Potency": "active: 5.8 µM"},
      {"smiles": "O=C(Cc1cccc2ccccc12)Nc1nc2ccccc2[nH]1", "Potency": "inconclusive: 23.1 µM [activator, single point]"},
      {"smiles": "CN1CCN(CC(O)COCc2ccc3c(c2)OCO3)CC1", "note": "(stereo unspecified)", "Potency": "inconclusive: 29.1 µM [activator, single point]"},
      {"smiles": "O=C(N/N=C/c1ccccn1)C(=O)N1CCCCCC1", "re-replication activation": "inactive: -18.9%"},
      {"smiles": "Oc1nc(Nc2cccc(Cl)c2)sc1/C=C1\\C=Nc2ccccc21", "Potency": "inconclusive: 25.9 µM [activator, single point]"},
      {"smiles": "Cc1ccc(C)c(NC(=O)Cn2nnc(C(=O)NCc3ccco3)c2N)c1", "Potency": "inconclusive: 5.17 µM [activator, single point]"},
      {"smiles": "C=CCOC(=O)C(=O)/C=C/c1coc2ccccc2c1=O", "Potency": "inconclusive: 29.1 µM [activator, single point]"},
      {"smiles": "CC(C)c1ccc(NC(=O)CCc2ccccc2)cc1", "Potency": "inconclusive: 29.1 µM [activator, single point]"},
      {"smiles": "CCOC(=O)c1c(/N=C/c2ccc(C)cc2O)sc2c1CCN(C)C2", "Potency": "inconclusive: 23.1 µM [activator, single point]"},
      {"smiles": "COc1ccc(OC)c(S(=O)(=O)N2CCN(c3ccccc3OC)CC2)c1", "re-replication activation": "inactive: 2.88%"},
      {"smiles": "CCCCN(C(=O)c1cccc(S(=O)(=O)N2CCOCC2)c1)c1c(N)n(CCC)c(=O)[nH]c1=O", "Potency": "inconclusive: 6.51 µM [activator, single point]"},
      {"smiles": "CCOc1ccc(Nc2nc(N)c([N+](=O)[O-])c(N3CCN(C)CC3)n2)cc1", "Potency": "inconclusive: 2.31 µM [activator, partial curve, poor fit]"},
      {"smiles": "Cc1ccc(C)c(S(=O)(=O)/N=C2\\C=C(NS(=O)(=O)c3ccccc3)C(=O)c3ccccc32)c1", "Potency": "inconclusive: 29.1 µM [activator, single point]"},
      {"smiles": "Cc1nnc(NC(=O)c2ccc3c(c2)C(=O)N(CC2CCCO2)C3=O)s1", "note": "(stereo unspecified)", "Potency": "inconclusive: 20.6 µM [activator, single point]"},
      {"smiles": "COC(=O)[C@@H]1Cc2c([nH]c3ccccc23)C(C)(C)N1C(=O)CCl", "Potency": "active: 6.51 µM"},
      {"smiles": "CCN1CCN(c2ccc(S(=O)(=O)N3CCCCC3)cc2NC(=O)c2cccc(C(F)(F)F)c2)CC1", "Potency": "inconclusive: 29.1 µM [activator, single point]"},
      {"smiles": "CCN1CCN(CCCNC(=O)c2ccc3c(c2)N(Cc2ccc(C)cc2)CCS3)CC1", "Potency": "active: 14.6 µM"},
      {"smiles": "COc1ccc(-c2cc(C(=O)Nc3ccc(S(=O)(=O)Nc4onc(C)c4C)cc3)c3ccccc3n2)cc1", "re-replication activation": "inactive: -18.8%"},
      {"smiles": "CCC(C)NC(=O)c1c(N)n(/N=C/c2ccccn2)c2nc3ccccc3nc12", "note": "(stereo unspecified)", "Potency": "active: 16.4 µM"},
      {"smiles": "CCc1noc(C)c1C(=O)Nc1nc(-c2cc(C)ccc2C)c(C)s1", "Potency": "inconclusive: 6.51 µM [activator, single point]"},
      {"smiles": "CC(=O)NNC(=O)CCC(=O)Nc1ccccc1", "Potency": "inconclusive: 29.1 µM [activator, single point]"},
      {"smiles": "O=C(CCN1CCN(c2ccccc2)CC1)Nc1ccc(Cl)cc1", "re-replication activation": "inactive: 7.11%"},
      {"smiles": "Cc1ccc(-n2cc(-c3ccccc3)c3c(N4CCOCC4)ncnc32)cc1", "Potency": "inconclusive: 16.4 µM [activator, single point]"},
      {"smiles": "Nc1nc(COC(=O)C2CC(=O)N(Cc3ccccc3)C2)nc(Nc2ccccc2)n1", "note": "(stereo unspecified)", "Potency": "inconclusive: 29.1 µM [activator, partial curve, poor fit]"},
      {"smiles": "CCN(CC)c1ccc(NC(=O)CC2Oc3ccccc3NC2=O)c(C)c1", "note": "(stereo unspecified)", "Potency": "inconclusive: 18.4 µM [activator, single point]"},
      {"smiles": "COc1ccc(NC(=O)/C(Cl)=C(/Cl)S(=O)Cc2ccccc2)cn1", "note": "(stereo unspecified)", "Potency": "inconclusive: 0.13 µM [activator, full curve, poor fit]"},
      {"smiles": "CC(=O)/C(C#N)=C1\\NC(=O)C(Cc2ccccc2C)S1", "note": "(stereo unspecified)", "re-replication activation": "inactive: 3.78%"},
      {"smiles": "Cc1ccc(N2C(=O)C3C4C=CC(CNC(=S)Nc5ccc(F)cc5)(O4)C3C2=O)cc1", "note": "(stereo unspecified)", "Potency": "inconclusive: 20.6 µM [activator, partial curve, poor fit]"},
      {"smiles": "CC(CCc1ccccc1)NC(=O)COC(=O)C(CCC(N)=O)NC(=O)c1ccc(F)cc1", "note": "(stereo unspecified)", "re-replication activation": "inactive: -0.198%"},
      {"smiles": "Cc1cc(C)cc(C(=O)NCCC(=O)NCc2cc(=O)n(C)c(=O)n2C)c1", "Potency": "inconclusive: 6.51 µM [activator, partial curve, poor fit]"},
      {"smiles": "COc1ccccc1N=c1scc(-c2ccc3c(c2)NC(=O)CO3)n1CC1CCCO1", "note": "(stereo unspecified)", "re-replication activation": "inactive: 4.02%"},
      {"smiles": "c1ccc(-c2ccccc2OCCCN2CCCCC2)cc1", "Potency": "inconclusive: 14.6 µM [activator, partial curve]"},
      {"smiles": "Cc1cccc(-c2cc3nc(-c4ccccc4)cc(N4CCC5(CC4)OCCO5)n3n2)c1", "Potency": "inconclusive: 18.4 µM [activator, single point]"},
      {"smiles": "N#Cc1ccc(-c2ccc(F)cc2)nc1Sc1ccc(F)cc1", "Potency": "inconclusive: 7.31 µM [activator, partial curve, poor fit]"},
      {"smiles": "Cc1cc(=O)oc2cc(NS(=O)(=O)c3ccc(F)cc3)ccc12", "Potency": "inconclusive: 18.4 µM [activator, single point]"},
      {"smiles": "CC1CN(C(=O)/C=C/c2ccccc2Cl)CC(C)O1", "note": "(stereo unspecified)", "Potency": "inconclusive: 25.9 µM [activator, partial curve, poor fit]"},
      {"smiles": "COC(C(=O)Nc1ccc(S(=O)(=O)Nc2c(C)cccc2C)cc1)c1ccccc1", "note": "(stereo unspecified)", "Potency": "inconclusive: 6.51 µM [activator, single point]"},
      {"smiles": "O=C(NCc1cccnc1)C(=O)NCC(c1ccco1)N1CCOCC1", "note": "(stereo unspecified)", "re-replication activation": "inactive: 13.4%"},
      {"smiles": "Cc1cccc2sc(NC(=O)C3CSC4(C)CCC(=O)N34)nc12", "note": "(stereo unspecified)", "Potency": "inconclusive: 29.1 µM [activator, single point]"},
      {"smiles": "COc1ccc(OC)c(NC(=O)c2ccccc2N(C)S(=O)(=O)c2ccc(C)cc2)c1", "Potency": "inconclusive: 29.1 µM [activator, single point]"},
      {"smiles": "COC(=O)CNC(=O)C1CC(=O)N(CCc2ccc(F)cc2)C1", "note": "(stereo unspecified)", "Potency": "inconclusive: 25.9 µM [activator, single point]"},
      {"smiles": "COc1ccc(S(=O)(=O)N2CCN(C(=O)C3CC(=O)N(c4ccccc4F)C3)CC2)cc1OC", "note": "(stereo unspecified)", "re-replication activation": "inactive: 3.63%"},
      {"smiles": "Cc1c(C(=O)Nc2ccc(Cl)cc2)c2ccccn2c1C(=O)c1ccccc1", "Potency": "inconclusive: 29.1 µM [activator, single point]"},
      {"smiles": "CC(C)C12CN3CC(C(C)C)(CN(C1)C3c1ccc3c(c1)OCO3)C2=O", "note": "(stereo unspecified)", "Potency": "inconclusive: 29.1 µM [activator, partial curve, poor fit]"},
      {"smiles": "Cc1ccc(C2NC(=O)c3c(sc(C)c3C)N2)c(O)c1", "note": "(stereo unspecified)", "Potency": "active: 20.6 µM"},
      {"smiles": "c1ccc(CCn2c3ccccc3c3nnc(SCc4ccc5nonc5c4)nc32)cc1", "Potency": "inconclusive: 18.4 µM [activator, partial curve, poor fit]"},
      {"smiles": "CC1CCCC(NC(=O)CNCc2ccccc2F)C1C", "note": "(stereo unspecified)", "re-replication activation": "inactive: -4.67%"},
      {"smiles": "CN(C(=O)c1cccc(NC(=O)Cc2ccc(NC(=O)C3CCCN(C(=O)c4ccccc4)C3)cc2)c1)C1CCCC1", "note": "(stereo unspecified)", "Potency": "inconclusive: 2.06 µM [activator, partial curve, poor fit]"},
      {"smiles": "O=C(CN1C(=O)C2C3C=CC(C4CC34)C2C1=O)NCc1ccco1", "note": "(stereo unspecified)", "re-replication activation": "inactive: -2.43%"},
      {"smiles": "CC(C)n1c(SCC(=O)N2c3ccccc3Sc3ccccc32)nc2c1c(=O)n(C)c(=O)n2C", "Potency": "inconclusive: 29.1 µM [activator, single point]"},
      {"smiles": "Cc1ccc(C(=O)Nc2ccccc2C(=O)N2CC3(C)CC2CC(C)(C)C3)cc1", "note": "(stereo unspecified)", "Potency": "inconclusive: 20.6 µM [activator, partial curve, poor fit]"},
      {"smiles": "CCc1cc2c(CN3CCN(CC)CC3)cc(=O)oc2cc1O", "Potency": "inconclusive: 7.31 µM [activator, partial curve, poor fit]"},
      {"smiles": "Nc1ccc2c(c1)C(=O)c1ccccc1-2", "Potency": "inconclusive: 18.4 µM [activator, single point]"},
      {"smiles": "COc1ccc(CN2CCN(Cc3c[nH]c4ccccc34)CC2)cc1", "Potency": "inconclusive: 9.2 µM [activator, single point]"},
      {"smiles": "Cc1nc(C(=O)NC2CCCCC2)sc1C1(C)CC(c2cccc([N+](=O)[O-])c2)=NO1", "note": "(stereo unspecified)", "Potency": "inconclusive: 20.6 µM [activator, single point]"},
      {"smiles": "CCCn1c(N)c(C(=O)CSc2ncc(C(F)(F)F)cc2Cl)c(=O)[nH]c1=O", "re-replication activation": "inactive: 22.5%"},
      {"smiles": "O=C(N/N=C/c1ccc(Cl)c([N+](=O)[O-])c1)c1cc(-c2ccc3c4c(cccc24)CC3)n[nH]1", "Potency": "inconclusive: 29.1 µM [activator, partial curve, poor fit]"}
    ]}
  ]
}
